These results are taken from patent US20110027186A1.

By UniProt entry, the sequences of proteins in these tests, tags left out. Residues count along the entry.
UniProt Q9GZV5: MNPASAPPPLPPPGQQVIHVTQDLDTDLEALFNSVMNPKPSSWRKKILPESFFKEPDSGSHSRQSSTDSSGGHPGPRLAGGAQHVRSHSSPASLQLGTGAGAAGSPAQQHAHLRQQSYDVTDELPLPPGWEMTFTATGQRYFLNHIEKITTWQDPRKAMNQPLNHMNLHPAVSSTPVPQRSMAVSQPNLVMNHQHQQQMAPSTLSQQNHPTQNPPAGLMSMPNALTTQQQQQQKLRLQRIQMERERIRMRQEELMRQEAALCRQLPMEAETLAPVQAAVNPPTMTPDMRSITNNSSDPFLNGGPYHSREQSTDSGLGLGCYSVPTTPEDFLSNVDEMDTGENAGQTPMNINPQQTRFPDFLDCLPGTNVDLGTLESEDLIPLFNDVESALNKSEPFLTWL
UniProt Q15562: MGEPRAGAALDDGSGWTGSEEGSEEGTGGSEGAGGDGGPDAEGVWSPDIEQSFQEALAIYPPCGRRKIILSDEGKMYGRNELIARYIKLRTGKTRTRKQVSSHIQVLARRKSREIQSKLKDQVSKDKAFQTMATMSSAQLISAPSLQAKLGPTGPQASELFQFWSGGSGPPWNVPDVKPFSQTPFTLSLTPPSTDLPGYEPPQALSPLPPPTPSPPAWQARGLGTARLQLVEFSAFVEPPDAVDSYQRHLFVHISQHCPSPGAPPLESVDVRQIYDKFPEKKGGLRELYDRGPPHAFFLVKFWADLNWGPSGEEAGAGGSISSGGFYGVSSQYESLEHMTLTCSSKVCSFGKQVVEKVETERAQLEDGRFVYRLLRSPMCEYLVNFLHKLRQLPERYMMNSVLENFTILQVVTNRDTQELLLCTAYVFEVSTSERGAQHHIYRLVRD
UniProt P28347, residues 16-426: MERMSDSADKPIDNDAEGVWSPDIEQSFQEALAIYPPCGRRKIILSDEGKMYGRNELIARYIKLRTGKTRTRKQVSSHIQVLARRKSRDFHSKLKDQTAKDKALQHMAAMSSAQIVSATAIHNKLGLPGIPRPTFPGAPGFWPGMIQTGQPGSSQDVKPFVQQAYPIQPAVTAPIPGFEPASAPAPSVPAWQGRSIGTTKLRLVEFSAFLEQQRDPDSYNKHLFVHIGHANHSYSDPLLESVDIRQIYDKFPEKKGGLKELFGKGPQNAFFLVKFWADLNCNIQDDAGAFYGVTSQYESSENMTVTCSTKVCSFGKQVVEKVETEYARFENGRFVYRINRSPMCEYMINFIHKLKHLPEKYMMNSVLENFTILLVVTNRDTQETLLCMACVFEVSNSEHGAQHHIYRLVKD

Assay [1] concerns the target TAZ (Transcriptional Coactivator with PDZ-Binding Motif), endogenous protein in human breast cancer cell lysates (human) (UniProt Q9GZV5). As to the kind of experiment: co-immunoprecipitation with anti-HA from Hs578T lysates, immunoblot. (In general: In western blotting, separated proteins are transferred to a membrane and probed.)
Assay [2] has the same target. In words: co-immunoprecipitation, figure legend of FIG. 8B.

These are yes or no findings as the source states them, for the method shown. In cells and extracts the contact can be indirect. Some binding calls cover weakened binding; strength is not graded here.

Consider HA-TEAD2 (from UniProt Q15562 1-447), for which the binding entry in assay [1] and in assay [2] was “binds” each time.
As to HA-TEAD1 (from UniProt P28347 16-426), the binding result in assay [1] and in assay [2] was “binds” throughout.
